According to paper PMC9156709:

Biological target: T1, Flag-HA tagged PFKP (human) (UniProt Q01813)
T1 sequence: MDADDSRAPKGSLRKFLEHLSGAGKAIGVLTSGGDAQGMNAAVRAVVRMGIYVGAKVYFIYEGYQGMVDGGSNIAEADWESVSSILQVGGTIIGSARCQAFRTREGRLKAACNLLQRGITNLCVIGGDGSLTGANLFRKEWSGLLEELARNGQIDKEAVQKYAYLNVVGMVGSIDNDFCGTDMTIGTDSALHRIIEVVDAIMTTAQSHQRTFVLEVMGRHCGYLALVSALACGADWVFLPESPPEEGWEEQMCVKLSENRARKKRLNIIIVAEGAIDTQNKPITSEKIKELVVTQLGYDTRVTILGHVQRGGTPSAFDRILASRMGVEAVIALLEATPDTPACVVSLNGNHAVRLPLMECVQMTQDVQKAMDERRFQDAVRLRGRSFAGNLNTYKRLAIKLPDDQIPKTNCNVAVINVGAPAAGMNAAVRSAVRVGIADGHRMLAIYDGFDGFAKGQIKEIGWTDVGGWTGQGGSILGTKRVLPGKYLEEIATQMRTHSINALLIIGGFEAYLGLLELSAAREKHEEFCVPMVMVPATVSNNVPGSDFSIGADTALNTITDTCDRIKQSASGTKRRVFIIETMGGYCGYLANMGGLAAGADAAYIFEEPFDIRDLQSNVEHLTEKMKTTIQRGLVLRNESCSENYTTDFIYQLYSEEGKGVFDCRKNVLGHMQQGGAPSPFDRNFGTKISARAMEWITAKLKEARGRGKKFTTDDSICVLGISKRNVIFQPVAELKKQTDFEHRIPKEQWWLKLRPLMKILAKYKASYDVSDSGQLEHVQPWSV
Experiment: pull-down; in vitro protein-protein interaction assay: Flag-HA tagged PFKP or domains purified by Flag IP and held on FLAG M2 beads, incubated with 50 ng tagged AMPK complex in 1 mL lysis buffer (20 mM Tris pH 7.4, 150 mM NaCl, 1 mM EDTA, 1 mM EGTA, 1% Triton X-100) for 1 h at room temperature, washed thrice, western blot; both purified

## His-tagged AMPKα1/β1/γ2 (complex)
  binding: binds

Results are given in words; binding and its absence hold for the method and conditions named. Binding can be weak; no strength is given. Sequences can lack the tags named with a protein.
